A word on the Inhibition: it is the relative decrease from the control value, in per cent.

The structures appear in SMILES notation. This is one part of the list. Measured potencies and affinities stand elsewhere.

For this test, the system named is Pseudomonas aeruginosa. To be noted: Concentration 20 uM; ASSAY_TEST Inhibition of Bacterial Growth; detection method Absorption (OD600); MEDIA CAMHB; plate type 384well; NBS; CORNING #3640; time 18 hr.
Consider `O=C(Nc1cccc2c1N(C(=O)c1ccco1)CCC2)c1ccco1`, for which the Inhibition was 24.14%.

Take `CC1=C(c2ccccc2)C=NNCC1=O`: the Inhibition is reported as 28.49%.

With `Cn1ncc2c(Nc3ccccc3Cl)nc(Nc3ccccc3Cl)nc21`, the Inhibition is 23.15%.

With `CN(C)c1ccc2c(c1)Sc1cc(N(C)C)ccc1N2C(=O)c1ccccc1`, the Inhibition worked out at 29.58%.

Turning to `COc1ccc(/N=N/c2c(N)n[nH]c2N)cc1`, the Inhibition worked out at 4.62%.

For the molecule `CSc1c(N(C)C)c(=O)c1=S`, the Inhibition came to 13.32%.

`Cc1ccccc1NC(=O)C(=O)Nc1ccccc1C`: the Inhibition is 13.87%.

With `O=c1[nH]c2c(cnn2-c2ccc(Cl)cc2)c(=O)n1-c1cccc(Cl)c1`, the Inhibition was found to be 24.13%.

Consider `OC(COc1cccc2ccccc12)CN1CCN(c2ccccc2Cl)CC1` (stereo not given), for which the Inhibition was -4.41%.

On to `CN1N=C/C(=C/NC(N)=O)C1=O`, for which the Inhibition amounted to 21.15%.

Regarding `CCOC(=O)/C(=N\O)C1=CSC2=NNC(C)(C)N12`, the Inhibition is listed as 16.63%.

Take `Cn1c(=O)c2nc(COc3ccc(C(C)(C)C)cc3)[nH]c2n(C)c1=O`: the Inhibition is 2.59%.

In the case of `Oc1ccc(Cc2ccc(Cl)cc2)c(O)c1`, the Inhibition is on record as 5.78%.

Regarding `CCCCOc1ccc(OC(=O)Nc2cc(Cl)ccc2OC)cc1`, the Inhibition was determined as 19.42%.

On to `OC(COc1ccc(Cl)cc1)CN1CCN(c2cccc(Cl)c2)CC1` (stereo not given), for which the Inhibition turned out to be 27.25%.

With `CCOC(=O)CCCN(c1[nH]c(C)c(C)c1C#N)S(=O)(=O)c1ccc(C)cc1`, the Inhibition was found to be 22.67%.

For the molecule `O=C(O)c1ccc2c(c1Sc1ccccc1)C(=O)c1ccccc1C2=O`, the Inhibition turned out to be 4.07%.

In the case of `COc1ccc(CC(=O)c2ccc(O)cc2O)cc1` [ONONETIN], the Inhibition is reported as 3.61%.

As to `Cc1ccc(Nc2nnc(S)s2)cc1F`, the Inhibition is given as 3.77%.

Turning to `CN(C)c1ccc(/C=C/C(=O)c2cc(Cl)ccc2O)cc1`, the Inhibition is listed as 21.55%.

For the molecule `c1ccn(CCc2ccncc2)c1`, the Inhibition amounted to 14.65%.

As to `O=c1nc(Oc2ccccc2)nc2ncccn12`, the Inhibition is listed as 6.33%.

Consider `CCC(C)n1c(C)cc(=O)n1C(C)CC` (stereo not given), for which the Inhibition is -3.12%.

In the case of `CC1=NC(C)(C)CC2CCC(O)C12` (stereo not given), the Inhibition came out at 14.19%.

`Nc1nc(Cl)cc(Nc2ccccc2Cl)n1`: the Inhibition was -14.31%.

For the molecule `CCOC(=O)c1nn(-c2ccccc2)cc1O`, the Inhibition is given as -6.89%.

Take `Cc1c(NC(=O)Nc2c(Cl)cccc2Cl)c(=O)n(-c2ccccc2)n1C`: the Inhibition was determined as 19.34%.

As for `CN(C)Cc1cc(C(F)(F)F)ccc1C(O)(c1ccccc1)c1ccccc1`, the Inhibition was 25.21%.

Take `CCNc1nc(NC(C)C)nc(-c2ccncc2)n1`: the Inhibition stood at 20.87%.

Take `Cc1nc(S)nc(O)c1CCC1OCCO1`: the Inhibition was 16.2%.

Turning to `COC1=CC(C)C2CC3OC(O)CC4C(C)=C(OC)C(=O)C(C2(C)C1=O)C34C` (stereo not given), the Inhibition came out at 8.16%.

As to `O=C(O)c1ccccc1-n1c2ccccc2c2ccccc21`, the Inhibition was 8.61%.

Consider `ClCC(CNCc1ccccc1)c1ccccc1` (stereo not given), for which the Inhibition was 2.14%.

For `CSc1nc2cc(S(=O)(=O)N3CCCCC3)ccc2s1`, the Inhibition is on record as -5.16%.

As for `NC(CSC1(c2cccc3ccccc23)c2ccccc2-c2ccccc21)C(=O)O` (stereo not given), the Inhibition came out at 11.91%.

Take `Br.C=CC1CN2CCC1CC2C(O)c1ccnc2ccc(OC)cc12` (stereo not given): the Inhibition worked out at 19.88%.

In the case of `Cc1ccc([N+](=O)[O-])cc1NC(=O)Nc1cccc(F)c1`, the Inhibition stood at 12.57%.

On to `Nc1nc(S)c2ncn(C3CCCC3)c2n1`, for which the Inhibition is given as 28.61%.

As to `Nn1c(Cc2ccccc2)nnc1Cc1ccccc1`, the Inhibition is 7.54%.

As for `N=C1OC(c2ccccc2)C(O)=C1O` (stereo not given), the Inhibition is 6.44%.

For the molecule `CCOC(=O)c1cc(OCC)c2c(ccc3ccccc32)n1`, the Inhibition is -5.38%.

Consider `O=C(O)CSc1nc2ccccc2s1`, for which the Inhibition is recorded as -1.07%.

For the molecule `CN(C)c1nc(Cl)nc2c1nc(Cl)n2C1CCCCO1` (stereo not given), the Inhibition is 0.82%.

Regarding `CC(C)c1ccc(-c2nc3ccccc3s2)cc1`, the Inhibition was determined as 4.9%.

Consider `O=C(Nc1ccc(Cl)c([N+](=O)[O-])c1)Nc1nc2ccccc2s1`, for which the Inhibition came to 15.38%.

`CN(C(=O)c1ccncc1)c1ccccc1`: the Inhibition was found to be 4.79%.

Consider `Cc1cc(NC(=O)OC(C)C)ccc1-c1ccc(NC(=O)OC(C)C)cc1C`, for which the Inhibition is on record as -11.78%.

`C(=C\CSc1ccccn1)/CSc1ccccn1`: the Inhibition was determined as 25.2%.

As for `CC(=O)[C@@]1(O)[C@H](C)C[C@H]2[C@@H]3C=C(C)C4=Cc5c(cnn5-c5ccccc5)C[C@]4(C)[C@H]3[C@@H](O)C[C@@]21C`, the Inhibition is 12.99%.

For the molecule `NS(=O)(=O)c1ccc(/N=N/c2ccc(O)[nH]c2=O)cc1`, the Inhibition worked out at 20.92%.

On to `CCSc1nc(C)cc(S)n1`, for which the Inhibition amounted to 21.23%.

As to `CN1C(=O)c2ccccc2Cc2c(NCc3ccccc3)ncnc21`, the Inhibition is 22.17%.

For `O=C(Nc1nnc(C(F)(F)F)s1)c1c(F)cccc1F`, the Inhibition was 18.28%.

Consider `Cc1c(O)ccc2c(O)c(NC(=O)c3ccc4c(c3)CCC(C)(C)O4)c(=O)oc12` [CYCLONOVOBIOCIC ACID], for which the Inhibition is recorded as 11.99%.

Turning to `COC(=O)c1cc(C)c(C)cc1NC1OC(CO)C(O)C1O` (stereo not given), the Inhibition is given as -6.55%.

Turning to `COC(=O)C1=C(C)NC(C)=C(C(=O)OC)C(N2C(=O)CCC2=O)C1` (stereo not given), the Inhibition stood at 19.58%.

Turning to `CCCOc1ccc(-c2nc(-c3ccc(N)cc3)cs2)cc1`, the Inhibition came out at 15.99%.

For the molecule `Cc1nc(N)nc(Cl)c1CCC1OCCO1`, the Inhibition turned out to be 10.13%.

With `CCOC(=O)c1[nH]c(CO)c(C(=O)OCC)c1C`, the Inhibition is 4.18%.

Regarding `CC(C)(C)C(=O)Nc1ccc(NC(=O)C(C)(C)C)cc1`, the Inhibition is 3.9%.

`C/C(=N\O)[C@H]1CC[C@H]2[C@@H]3CC[C@@H]4C/C(=N/O)CC[C@]4(C)[C@H]3[C@@](C)(O)C[C@]12C`: the Inhibition came out at 28.52%.

With `COc1ccc2c(C)cc(C)nc2n1`, the Inhibition came to 0.15%.

In the case of `O=C(/C=C\c1ccc(O)c(O)c1)OC1C(O)CC(OC(=O)/C=C/c2ccc(O)c(O)c2)(C(=O)O)CC1O` (stereo not given), the Inhibition is listed as 14.22%.

With `Nc1ncnc2c1ncn2C=C=CCO`, the Inhibition is on record as -5.34%.

For the molecule `C=CCN=C(NC#N)SC`, the Inhibition is recorded as -7.26%.

As for `Cl.O=C(O)c1ccc(NCc2nc3ccccc3[nH]2)cc1`, the Inhibition is -13.23%.

Regarding `CCCCCn1cnc2c(S)nc(N)nc21`, the Inhibition worked out at 16.96%.

For the molecule `Cc1ccc(S(=O)(=O)NNC(=O)C23CCC(CC2)C3)cc1`, the Inhibition amounted to 31.05%.

On to `Cc1nc(Nc2ccc(F)cc2)nc(Nc2ccc(F)cc2)c1[N+](=O)[O-]`, for which the Inhibition is reported as 25.2%.

In the case of `Cc1cccc(C)c1NC(=O)NCc1ccco1`, the Inhibition stood at 3.33%.

On to `C1CCC(NC2=NCCO2)CC1`, for which the Inhibition came out at 11.37%.

In the case of `CN(C)c1ccc(/C=C2/C=C(c3ccc4c(c3)CCCC4)OC2=O)cc1`, the Inhibition stood at 15.17%.

On to `CC(C)N(Cc1ccccc1)S(=O)(=O)c1nc(C(C)(C)C)n[nH]1`, for which the Inhibition amounted to 18.9%.

For `CCN1CCCCC(=N\O)/C(=N/O)CCCC1`, the Inhibition is 19.01%.

Take `Nc1ccccc1-n1nc2ccc3ccccc3c2n1`: the Inhibition amounted to 18.19%.

On to `Cn1ncc2c(Nc3ccc(Br)cc3)nc(Nc3ccc(Br)cc3)nc21`, for which the Inhibition worked out at 22.59%.

Consider `CN1CCN(C(=O)Nc2ccc([N+](=O)[O-])cc2)CC1`, for which the Inhibition was determined as 6.49%.

Take `O=C(c1ccccc1)c1ccc(Sc2ccc([N+](=O)[O-])cc2)cc1`: the Inhibition is listed as 17.7%.

`Clc1ccc(-c2[nH]nc3c2Cc2ccccc2-3)cc1Cl`: the Inhibition is -5.03%.

On to `Cn1ncc2c(Sc3ccc(Cl)cc3)ncnc21`, for which the Inhibition is listed as -1.88%.

Regarding `CCC(=Cc1ccc(CC)cn1)CC`, the Inhibition was found to be 1.5%.

Consider `Nc1ccccc1-c1nc2cnccc2[nH]1`, for which the Inhibition is reported as 12.68%.

In the case of `Cc1ccc(NC(=O)N2CCCCC2)cc1[N+](=O)[O-]`, the Inhibition came out at 6.69%.

On to `CCOC(=O)Nc1c(Cl)n(C)c(=O)n(C)c1=O`, for which the Inhibition is recorded as -14.01%.

On to `CC1CCCC(CC(=O)O)(CC(=O)O)C1` (stereo not given), for which the Inhibition is listed as -15.71%.

In the case of `CS/C(=C\c1ccc(C(=O)c2ccc(C)cc2)n1C)[S+](C)[O-]` (stereo not given), the Inhibition was determined as 23.19%.

Take `O=[N+]([O-])c1ccc2c3ccccc3[s+]([O-])c2c1` (stereo not given): the Inhibition is 8.87%.

For the molecule `c1ccc2c(c1)Nc1cc3ccccc3cc1S2`, the Inhibition came out at 12.44%.

Turning to `CC(C)Oc1ccc(C(=O)O)cc1`, the Inhibition was determined as 9.81%.

For `CC(=O)Oc1ccc(C(c2ccc(OC(C)=O)cc2)c2ccccn2)cc1` [BISACODYL], the Inhibition is 22.56%.

For `COc1cc(O)c(C(=O)/C=C/c2ccccc2)c(OC)c1` [FLAVOKAWAIN B], the Inhibition was found to be 10.96%.

On to `CN1C=C/C(=C/[N+](=O)[O-])N(C)C1=O`, for which the Inhibition worked out at 4.48%.

Regarding `O=C(O)c1cc2cc(OCc3ccccc3)ccc2[nH]1`, the Inhibition is given as 2.28%.

For `NC(=O)Nc1ccc(Nc2ccccc2)cc1`, the Inhibition worked out at 4.83%.

As to `Nc1ccc(Nc2ccccc2)c(S(=O)(=O)O)c1`, the Inhibition is recorded as -6.32%.

For `Cc1cc2nc(-c3ccccn3)c(-c3ccccn3)nc2cc1C`, the Inhibition came to 6.95%.

Turning to `CC(=O)NCC(=O)O.CN(C)CCC1c2ccc(Cl)cc2CCc2cccnc21` (stereo not given) [CLOSIRAMINE ACETURATE], the Inhibition came out at 27.92%.

As for `CCOC(=O)c1csc(-c2ccc(COC(=O)c3ccccc3)o2)n1`, the Inhibition came out at 17.7%.

As for `Cc1ccncc1C(N)=O`, the Inhibition is recorded as 5.1%.

In the case of `NC1=NC(Nc2ccccc2)=NC(c2ccccc2)N1` (stereo not given), the Inhibition amounted to 7.79%.

With `COc1ccc(-c2cc(-c3ccccc3)c(-c3ccccc3)nn2)cc1`, the Inhibition came out at 11.85%.

`Nc1cc2c3c(cccc3c1)C(=O)N(CCN1CCCC1)C2=O`: the Inhibition is listed as 27.74%.

On to `Cc1ccc(S(=O)(=O)N2CC=C(N)N2)cc1`, for which the Inhibition was 15.64%.

On to `C#CCNc1ccc(C(=O)OCC)cc1`, for which the Inhibition was -3.64%.

Regarding `CCOc1ccc(NC(=O)Nc2cc(C(C)C)c(O)cc2C)cc1`, the Inhibition is reported as 15.57%.

As for `c1ccc(NCCSc2nc3ccccc3s2)cc1`, the Inhibition was found to be 12.09%.

For the molecule `CCN(CC)c1ccc(/C=C/c2cc(-c3ccccc3)c3ccccc3n2)cc1`, the Inhibition is 20.27%.

Consider `c1ccc2nc(NN=C3CCCCC3)ccc2c1`, for which the Inhibition was determined as 11.83%.

As for `CN1CCC(=C2c3ccccc3C(O)c3ccccc32)CC1` (stereo not given), the Inhibition stood at 23.41%.

Consider `Cc1cc(=O)c2c(o1)C(=O)c1occc1C2=O`, for which the Inhibition is recorded as -29.59%.

The values above are taken from ChEMBL document CHEMBL4296182, “CO-ADD screening of NIH NCI Diversity Set V”.
